Reference: patent US20120010148A1, “COMBINATION THERAPIES USING NAP” (ALLON THERAPEUTICS INC., priority 2008, published 2012)
At least one structure is not confirmed: it was looked up by name or label, or the drawing left a doubt.

System: Rat pheochromocytoma cells (PC12)
Experiment: Serum-deprivation survival of PC12 cells, MTS viability assay
Format: cell-based
Conditions: >40% cell death, compared against cultures supplemented with serum, FIG. 7
Method: The survival-promoting effects of galantamine (an acetylcholine-esterase inhibitor, or AcEI), NAP, and their combinatorial treatment were assessed in cell cultures. Cell culture method was adapted from Calderon et al., J Neurosci Res 56, 620-631 (1999).
Rat pheochromocytoma cells (PC12) were grown in Dulbecco's modified Eagle's medium (DMEM) supplemented with 8% fetal calf serum, 8% horse donor serum, 2 mm L-glutamine, and 1% penicillin-streptomycin solution.
For the experiments, cells were harvested, re-suspended, and seeded in 96-well plates at a concentration of 1.5×10^4 cells/well. Cells were pretreated with NAP and Galantamine [Galantamine (0.1, 0.5, 1, 10 μM); NAP (10^−8M, 10^−1° M, 10^−12M, 10^−15M)] 3 hours prior to serum deprivation and during serum deprivation. The assay for cell viability was performed 48 hours after serum deprivation. Calibration method is described below.
Culture medium was replaced by fresh medium without serum, containing NAP and Galantamine. Cells were incubated for 48 hours and then subject to MTS viability assay.
PC12 cells were seeded and treated as mentioned above without any drugs for 24 hours, 48 hours, and 72 hours. MTS results are represented by the percentage of viable cells from the serum deprived treatment vs. control treatment.

COc1ccc2c3c1O[C@H]1C[C@@H](O)C=C[C@@]31CCN(C)C2 [galantamine, Galantamine, reference compound]
protection against extensive cell death: Neither NAP nor galantamine protected
